Assay results as given in the supplement of paper PMC10735217.
Where a name gives a salt, the structure may show the parent alone. The list shows a part of the results. Single values are uncertain here, since repeats match poorly.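 In a drug-repurposing library screen, luminescence reads luciferase driven by eight TEAD-binding elements, stably integrated into human kidney-derived cells. Compounds scoring over five robust Z scores above the plate mean are called hits.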

System: HEK293A TEAD-LUC reporter
Assay: TEAD-luciferase reporter activity (YAP activation), robust Z score vs plate; higher = stronger YAP/TEAD activation
Settings: 24 h

SMILES	TEAD-luciferase reporter activity (compound concentration: 200 nM)	TEAD-luciferase reporter activity (compound concentration: 2 uM)	TEAD-luciferase reporter activity (compound concentration: 10 uM)
O=C(CCc1ccccc1)NC[C@H]1CN(c2ccc(N3CCOCC3)c(F)c2)C(=O)O1	inactive: 0.0736	inactive: -1.48	inactive: 1.92
CC1(C)C2CCC1(CS(=O)(=O)O)C(=O)/C2=C\c1ccc(/C=C2\C(=O)C3(CS(=O)(=O)O)CCC2C3(C)C)cc1 [Ecamsulum]	inactive: -1.43	inactive: -2.19	active: 9.13
Cc1oncc1C(=O)N1CCCCC1 [Nerbacadol]	inactive: -0.753	inactive: 0.184	inactive: 1.67
C=C1/C(=C/C=C2\CCC[C@]3(C)[C@@H]([C@H](C)/C=C/[C@@H](O)C4CC4)CC[C@@H]23)C[C@@H](O)C[C@@H]1O [calcipotriol (ointment), novel formulation, Leo]	inactive: -1.5	–	inactive: 0.33
C=C1/C(=C/C=C2\CCC[C@]3(C)[C@@H]([C@H](C)/C=C/[C@@H](O)C4CC4)CC[C@@H]23)C[C@@H](O)C[C@@H]1O [calcipotriol (ointment), novel formulation]	–	inactive: 0.248	–
COc1ccnc(-c2cccc(C)c2S(=O)c2nc3ccccc3[nH]2)c1 (stereo unspecified)	inactive: -1.05	inactive: -0.673	inactive: 0.211
CC(=O)N(C)C1CCc2ccccc21 (stereo unspecified)	inactive: 3.33	–	inactive: 0.894
COc1cccc(-c2ccc(CN3CCCC3C(=O)NCc3ccc(C(F)(F)F)cc3)cc2)c1 (stereo unspecified)	inactive: 2.49	–	inactive: 0.89
CON=C(C(=O)NC1CN2CC(S(C)(=O)=O)=C(C(=O)O)N2C1=O)c1csc(N)n1 (stereo unspecified)	inactive: -0.367	–	inactive: 1.58
C/C(=C\C(=O)c1ccccc1)N[C@@H](Cc1ccc(OCCc2nc(-c3ccccc3)oc2C)cc1)C(=O)[O-]	inactive: 0.29	inactive: 0.229	inactive: 0.329
CCCN1CCCCC12Cc1ccccc1CN(C(=O)C1CCN(C)CC1)C2 (stereo unspecified)	inactive: -1.08	–	inactive: -0.815
CCCCC1C(=O)N(c2ccccc2)N(c2ccccc2)C1=O [Phenylbutazone]	inactive: -0.734	inactive: 0.0751	inactive: -1.12
C=CC1CNCCC1CCCc1ccnc2ccc(OC)cc12 (stereo unspecified) [Viqualine]	inactive: -0.824	inactive: -0.891	inactive: -0.877
CCCCc1nc(Cl)c(C(=O)O)n1Cc1ccc2oc(-c3ccccc3-c3nnn[nH]3)c(Br)c2c1	inactive: -1.23	inactive: -1.28	inactive: -1.27
COc1cc(C)c(S(C)=O)cc1OC (stereo unspecified) [Tolmesoxide]	inactive: -0.383	inactive: 0.903	inactive: -0.175
COC(=O)N1CCC(N2CC3CCCN3C2=O)CC1 (stereo unspecified)	inactive: -1.04	–	inactive: -0.54
CN1C(C(=O)Nc2ccccn2)=C(O)c2sc(Cl)cc2S1(=O)=O [Lornoxicam (Xefo)]	inactive: -1.66	inactive: 1.81	inactive: 0.665
CCCC(=O)c1cnc2c(OCCO)cccc2c1Nc1ccccc1C	inactive: 1.83	inactive: -0.609	inactive: 0.166
COc1cc(C(=O)N2CCOCC2)cc(OC)c1OC	inactive: -1.78	inactive: -1.48	inactive: -0.0416

SMILES	TEAD-luciferase reporter activity (compound concentration: 200 nM)	TEAD-luciferase reporter activity (compound concentration: 2 uM)	TEAD-luciferase reporter activity (compound concentration: 10 uM)
COc1cccc(-c2cc(=O)c3ccccc3o2)c1N	active: 9.37	inactive: 1.89	inactive: 1.91
CC1=CCC(C(C)(C)O)CC1 (stereo unspecified)	inactive: -0.645	inactive: -1.47	inactive: -0.875
CC(C)[C@@H](CC[C@@H](C)[C@H]1CC[C@H]2[C@@H]3[C@H](O)C[C@H]4C[C@@H](NCCCNCCCCN)CC[C@]4(C)[C@H]3CC[C@]12C)OS(=O)(=O)O	inactive: 1.24	inactive: 0.173	inactive: -1
O=C(NCc1cc(C(F)(F)F)ccc1F)[C@](O)(c1ccccc1)C(F)(F)F	inactive: 1.66	inactive: -0.14	inactive: 1.75
CC(=O)NC/C=C(C)/C=C/C=C(C)/C=C/C1=C(C)CCCC1(C)C	inactive: -1.47	inactive: -0.485	inactive: -0.107
CCCCc1cc2c(=O)c(C(=O)OC)c[nH]c2cc1OCc1ccccc1 [Nequinate]	inactive: -0.265	inactive: -1.18	inactive: 0.379
O=C(O)c1ccccn1 [Picolinic acid]	inactive: -0.964	inactive: -0.692	inactive: -1.27
O=C(NCCC1CCN(CC2=Cc3ccccc3OC2)CC1)Nc1ccccc1	inactive: -1.33	inactive: 0.289	inactive: 0.706
CC(CCc1ccc2c(c1)OCO2)NCC(O)c1ccc(O)c(C(N)=O)c1 (stereo unspecified) [Medroxalol]	inactive: -0.703	inactive: -0.927	inactive: 1.13
O=C(/C=C/c1ccc(O)cc1)c1ccc(O)cc1O	inactive: -1.48	inactive: -0.877	inactive: -0.44
CC1(C)CC[C@]2(C(=O)O)CC[C@]3(C)[C@H](C(=O)C=C4[C@@]5(C)C=C(C#N)C(=O)C(C)(C)[C@@H]5CC[C@]43C)[C@@H]2C1 [bardoxolone]	inactive: 0.728	inactive: -2.91	inactive: -3.94
C[C@@H]1CN(Cc2ccc(F)cc2)[C@@H](C)CN1C(=O)c1cc2c(C(=O)C(=O)N(C)C)cn(C)c2cc1Cl [talmapimod]	inactive: -3.66	inactive: -1.88	inactive: -1.09
C=CCN1CCCC1CNC(=O)c1cc(S(=O)(=O)NC)c(N)cc1OC (stereo unspecified)	inactive: 0.711	inactive: -0.395	inactive: -0.588
Cc1ccc2c(c1)nc1cc(Nc3ccc(Cl)cc3)c(=N)cc-1n2-c1ccc(Cl)cc1	inactive: 4.11	inactive: 0.459	inactive: 2.49
O=c1[nH]c(=O)n(C2CC(O)C(COP(=O)(O)O)O2)cc1F (stereo unspecified)	inactive: -0.332	inactive: -1.27	inactive: -1.54
COc1cc(C(=O)NCc2ccc(OCCN(C)C)cc2)cc(OC)c1OC [Trimethobenzamide hydrochloride]	inactive: -0.0391	inactive: -0.576	inactive: 1.38
Cc1ccc(-n2nc(C(C)(C)C)cc2NC(=O)Nc2ccc(OCCN3CCOCC3)c3ccccc23)cc1 [Doramapimod]	inactive: -1.17	inactive: -0.936	inactive: -0.422
CS(=O)(=O)c1ccc(-c2cc(Br)sc2-c2ccc(F)cc2)cc1	inactive: 2.52	inactive: -1.1	inactive: 0.56
C=CC(C)(O)CCC=C(C)CCC=C(C)C (stereo unspecified)	inactive: -0.595	inactive: 0.00145	inactive: -1.06

A second format for some results above.
SMILES,TEAD-luciferase reporter activity (compound concentration: 200 nM),TEAD-luciferase reporter activity (compound concentration: 2 uM),TEAD-luciferase reporter activity (compound concentration: 10 uM)
COc1cccc(-c2cc(=O)c3ccccc3o2)c1N,active: 9.37,inactive: 1.89,inactive: 1.91
CC1=CCC(C(C)(C)O)CC1 (stereo unspecified),inactive: -0.645,inactive: -1.47,inactive: -0.875
CC(=O)NC/C=C(C)/C=C/C=C(C)/C=C/C1=C(C)CCCC1(C)C,inactive: -1.47,inactive: -0.485,inactive: -0.107
CCCCc1cc2c(=O)c(C(=O)OC)c[nH]c2cc1OCc1ccccc1 [Nequinate],inactive: -0.265,inactive: -1.18,inactive: 0.379
O=C(NCCC1CCN(CC2=Cc3ccccc3OC2)CC1)Nc1ccccc1,inactive: -1.33,inactive: 0.289,inactive: 0.706
CC(CCc1ccc2c(c1)OCO2)NCC(O)c1ccc(O)c(C(N)=O)c1 (stereo unspecified) [Medroxalol],inactive: -0.703,inactive: -0.927,inactive: 1.13
O=C(/C=C/c1ccc(O)cc1)c1ccc(O)cc1O,inactive: -1.48,inactive: -0.877,inactive: -0.44
CC1(C)CC[C@]2(C(=O)O)CC[C@]3(C)[C@H](C(=O)C=C4[C@@]5(C)C=C(C#N)C(=O)C(C)(C)[C@@H]5CC[C@]43C)[C@@H]2C1 [bardoxolone],inactive: 0.728,inactive: -2.91,inactive: -3.94
C[C@@H]1CN(Cc2ccc(F)cc2)[C@@H](C)CN1C(=O)c1cc2c(C(=O)C(=O)N(C)C)cn(C)c2cc1Cl [talmapimod],inactive: -3.66,inactive: -1.88,inactive: -1.09
C=CCN1CCCC1CNC(=O)c1cc(S(=O)(=O)NC)c(N)cc1OC (stereo unspecified),inactive: 0.711,inactive: -0.395,inactive: -0.588
Cc1ccc2c(c1)nc1cc(Nc3ccc(Cl)cc3)c(=N)cc-1n2-c1ccc(Cl)cc1,inactive: 4.11,inactive: 0.459,inactive: 2.49
COc1cc(C(=O)NCc2ccc(OCCN(C)C)cc2)cc(OC)c1OC [Trimethobenzamide hydrochloride],inactive: -0.0391,inactive: -0.576,inactive: 1.38
Cc1ccc(-n2nc(C(C)(C)C)cc2NC(=O)Nc2ccc(OCCN3CCOCC3)c3ccccc23)cc1 [Doramapimod],inactive: -1.17,inactive: -0.936,inactive: -0.422
CS(=O)(=O)c1ccc(-c2cc(Br)sc2-c2ccc(F)cc2)cc1,inactive: 2.52,inactive: -1.1,inactive: 0.56
C=CC(C)(O)CCC=C(C)CCC=C(C)C (stereo unspecified),inactive: -0.595,inactive: 0.00145,inactive: -1.06

Continued.

SMILES	TEAD-luciferase reporter activity (compound concentration: 200 nM)	TEAD-luciferase reporter activity (compound concentration: 2 uM)	TEAD-luciferase reporter activity (compound concentration: 10 uM)
C=Cc1cc(O)cc2nc(-c3ccc(O)c(F)c3)oc12 [prinaberel]	inactive: -1.26	inactive: -1.21	inactive: -0.654
OC(CNCC(O)C1CCc2cc(F)ccc2O1)C1CCc2cc(F)ccc2O1 (stereo unspecified) [Nebivolol HCl]	inactive: -1.16	–	inactive: 3.67
OC(CNCC(O)C1CCc2cc(F)ccc2O1)C1CCc2cc(F)ccc2O1 (stereo unspecified) [nebivolol hydrochloride]	–	inactive: 0.868	–
NC(=O)/N=N/C(N)=O	–	inactive: -0.593	–
NC(=O)/N=N/C(N)=O [azodicarbonamide]	inactive: 0.0131	inactive: 0.0973	inactive: 0.234
COc1cc2c(cc1NS(=O)(=O)c1ccc(-c3ccc(Cl)s3)cc1)CCN(C)CC2	inactive: -0.735	inactive: -0.442	inactive: 3.95
COP(=O)(OC)OC(c1ccc(Cl)cc1)P(=O)(OC)OC (stereo unspecified) [Mifobate]	inactive: -0.521	inactive: -0.478	inactive: 1.29
CCCCCCCCc1ccc2c(c1)C(=O)c1nc3ccncc3c(=O)n1-2	inactive: -0.905	inactive: -0.121	inactive: 1.34
CN1C(=O)C(N2CCCCC2)S/C1=C\C(=O)O (stereo unspecified) [ozoli]	inactive: 0.427	inactive: 0.654	inactive: -1.03
O=C(O)c1ccc2c(c1)nc(Nc1cccc(Cl)c1)c1ccncc12 [CX-4945 (Silmitasertib)]	inactive: -0.0735	–	inactive: -0.585
O=C(O)c1ccc2c(c1)nc(Nc1cccc(Cl)c1)c1ccncc12 [Silmitasertib]	–	inactive: -3.25	–
O=C(NC1CCN(c2nc3ncccc3o2)CC1)C1CCCC1	inactive: 1.67	–	inactive: 0.433
C[C@H](Cn1cnc2c(N)ncnc21)OCP(=O)(O)O [tenofovir (TFV)]	–	inactive: 3.38	–
C[C@H](Cn1cnc2c(N)ncnc21)OCP(=O)(O)O [Tenofovir (TFV)]	inactive: -0.23	–	inactive: -1.36
COc1ccccc1OCCNCC(O)COc1cccc2[nH]nnc12 (stereo unspecified) [tribendilol]	inactive: -0.647	inactive: 0.471	inactive: -0.613
CN1[C@@H]2CC[C@H]1C[C@@H](NC(=O)NC(=O)c1ccccc1OCC1CC1)C2	inactive: 1.06	inactive: -1.44	inactive: -1.15
COc1cc2c(cc1C(F)(F)F)N(C(=O)Nc1cc(F)cc(-c3cccnc3)c1)CC2	inactive: 0.737	inactive: 0.233	inactive: 1.8
O=C(O)CC1C2CCCC1CN(Cc1ccc3c(c1)Nc1nccnc1S3)C2 (stereo unspecified)	inactive: 2.42	inactive: -0.197	inactive: 0.046
Cc1cc(Nc2cc(N3CCN(C)CC3)nc(/C=C/c3ccccc3)n2)n[nH]1	inactive: -0.333	inactive: -2.61	inactive: -2.76
